Laboratory results as given in patent publication US6297356, “Telomere repeat binding factors and diagnostic and therapeutic use thereof” (The Rockfeller University).
For part of these data: Where cells or extracts were used, other partners may take part. For part of these data: A negative result means that nothing was seen under these conditions. For part of these data: For at least one entry, the source does not settle the construct or the ends of the probe.

Chains of the proteins cited; added tags and fusions are not shown. Chains listed by the source or under a name are the forms on record and can include a tag or linker.
UniProt O35144, other isoform, or with tags, fused parts or gaps: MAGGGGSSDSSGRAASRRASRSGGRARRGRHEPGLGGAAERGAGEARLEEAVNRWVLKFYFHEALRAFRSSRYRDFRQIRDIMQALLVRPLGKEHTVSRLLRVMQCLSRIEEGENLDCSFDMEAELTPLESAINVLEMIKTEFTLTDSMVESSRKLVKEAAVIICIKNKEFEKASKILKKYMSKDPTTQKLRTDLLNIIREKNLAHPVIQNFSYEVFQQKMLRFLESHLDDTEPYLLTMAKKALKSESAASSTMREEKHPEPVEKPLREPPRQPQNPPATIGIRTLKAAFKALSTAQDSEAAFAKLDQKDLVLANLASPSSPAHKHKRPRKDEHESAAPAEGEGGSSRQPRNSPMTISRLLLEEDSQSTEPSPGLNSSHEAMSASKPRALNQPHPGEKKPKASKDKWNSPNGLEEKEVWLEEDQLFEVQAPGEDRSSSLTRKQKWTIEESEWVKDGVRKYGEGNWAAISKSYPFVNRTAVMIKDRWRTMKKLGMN
TRF1 endogenous (Homo sapiens), one chain, as listed by the source: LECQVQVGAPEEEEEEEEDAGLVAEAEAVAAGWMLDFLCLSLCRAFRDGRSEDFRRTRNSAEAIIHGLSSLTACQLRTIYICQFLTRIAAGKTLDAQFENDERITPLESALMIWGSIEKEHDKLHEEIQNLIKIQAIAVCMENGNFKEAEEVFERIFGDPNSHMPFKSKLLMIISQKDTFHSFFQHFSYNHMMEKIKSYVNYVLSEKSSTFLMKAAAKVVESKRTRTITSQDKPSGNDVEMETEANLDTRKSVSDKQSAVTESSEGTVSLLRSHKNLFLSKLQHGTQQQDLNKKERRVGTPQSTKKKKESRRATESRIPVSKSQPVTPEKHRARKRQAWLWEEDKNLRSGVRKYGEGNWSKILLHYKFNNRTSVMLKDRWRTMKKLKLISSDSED

Tests used:
[1] = target: TRF2 deltaN-49 (Mus musculus) (UniProt O35144); test: competition with a labelled probe; conditions: protein in a lysate after overexpression; protein details: FLAG; single-stranded DNA
[2] = target: TRF2 full length (Mus musculus) (UniProt O35144); test: EMSA; conditions: complex seen only in presence of anti-FLAG M2 antibody; protein in a lysate after overexpression; protein details: N-terminal FLAG; label: labelled
[3] = tested on: TRF1 endogenous (Homo sapiens); test: EMSA; conditions: HeLa whole cell extract, supershifted by TRF1 antibody; protein in an extract; label: labelled
[4] = target: TRF2 deltaN-49 (Mus musculus) (UniProt O35144); test: EMSA; conditions: supershifted by FLAG antibody; protein in a lysate after overexpression; protein details: FLAG; label: labelled
[5] = tested on: TRF1 (HeLa TRF) (Homo sapiens); test: EMSA; conditions: highly purified protein needs casein or certain other added proteins for binding; purified native protein; label: labelled

| Sequence | binding result [1] | binding result [2] | binding result [3] | binding result [4] | binding result [5] |
| --- | --- | --- | --- | --- | --- |
| TTAGGGTTAGGGTTAGGGTTAGGGTTAGGGTTAGGG [single-stranded [TTAGGG]6] | no binding | – | – | – | – |
| CCCTAACCCTAACCCTAACCCTAACCCTAACCCTAA [single-stranded [CCCTAA]6] | no binding | – | – | – | – |
| GTACCCGGGGATCGTGACTCTAGAGGGGCCCTAACCCTAACCCTAACCCTAACCCTAACCCTAACCCTAACCCTAACCCTAACCCTAACCCTAACCCTAACCCTAACCCGGGTCGAATTCGATCTCTAGAGTCGACCTGCAGGCATGC (double strand) [(TTAGGG)12 restriction fragment] | – | binds | binds | binds | binds |
